Data taken from the supplement of paper PMC3334620.
Over roughly 33,000 sequences, “E-score (-0.5 to 0.5)” has its median near -0.0034; the highest 2% begin near 0.25. The list shows a part of the results.

What follows are sequences tested against T1, Yap3 (UniProt P38749) (assay: PBM E-score (8-mer binding enrichment) (E-score (-0.5 to 0.5)); higher = stronger / more preferred TF binding). Conditions: protein concentration: 100 nM; construct: GST-full length.
T1 sequence: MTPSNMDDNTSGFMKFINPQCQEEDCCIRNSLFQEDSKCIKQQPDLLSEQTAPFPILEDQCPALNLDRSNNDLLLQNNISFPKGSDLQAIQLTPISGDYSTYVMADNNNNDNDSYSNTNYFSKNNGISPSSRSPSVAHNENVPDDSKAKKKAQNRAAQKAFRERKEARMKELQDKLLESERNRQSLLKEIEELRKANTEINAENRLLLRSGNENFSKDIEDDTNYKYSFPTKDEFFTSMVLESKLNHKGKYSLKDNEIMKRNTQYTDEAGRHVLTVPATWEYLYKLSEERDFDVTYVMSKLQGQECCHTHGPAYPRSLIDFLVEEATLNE
In short: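 For each ungapped eight-base word taken together with its reverse complement, the Universal PBM Analysis Suite assigned an E-score. Binding data came from GST-tagged yeast transcription factors, applied at about 100-200 nM, on universal all-10-mer Agilent arrays made double-stranded by primer extension. Fluorescent anti-GST marked bound protein, and scans were normalised with masliner.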

In order of rising “PBM E-score” value:
1. CGGCCCCC  -0.416
2. GAAGGGTC  -0.373
3. CGCTCCTC  -0.3
4. CCCCCTCA  -0.287
5. GGCCGCCC  -0.273
6. CACAAGTG  -0.246
7. CTACTCAG  -0.219
8. AGTCCAGC  -0.21
9. ACAAGTCC  -0.207
10. CCGCGAGA  -0.198
11. GCCCTTAA  -0.197
12. ACAGGCGC  -0.194
13. AGCGGCGC  -0.188
14. AGCGGTCC  -0.175
15. AATCCTAC  -0.172
16. GGGAGCCA  -0.171
17. CCTTTTAG  -0.17
18. GAGCGCAA  -0.167
19. AGTGGGGA  -0.162
20. ACCTAGGC  -0.16
21. AAGCTCTC  -0.156
22. CTAGGCAG  -0.156
23. ACCCAGGA  -0.153
24. CCCGACGG  -0.146
25. ACGCAGTG  -0.146
26. GAGACGGC  -0.138
27. TCCTACGA  -0.137
28. CGAGTCAC  -0.135
29. CGCTCCGC  -0.13
30. CGGCACCA  -0.117
31. ACTCTGCT  -0.116
32. ATGCGAGC  -0.11
33. AGCAGAAG  -0.101
34. GGATCAGA  -0.0891
35. GAACGGTC  -0.0884
36. GCGGCCTA  -0.0845
37. AGATTGAC  -0.0808
38. GCACGTAC  -0.0761
39. ACCGCTCG  -0.0737
40. AACAAGAG  -0.0705
41. AGTCTTAA  -0.0698
42. CGACCAGC  -0.0662
43. CTAACCCA  -0.0614
44. ATTGGGTC  -0.0609
45. TCCACCCA  -0.0597
46. TCTTTGAA  -0.0592
47. CATGCCAC  -0.0581
48. TAAGTCTA  -0.0558
49. ACGCTCCC  -0.0554
50. AGTCCCAA  -0.0515
51. CGATTCCA  -0.0507
52. CATCAAGC  -0.0486
53. CTTTAGGA  -0.0461
54. TAGGCTAA  -0.0454
55. AAGCGTCA  -0.0428
56. CAGCACGA  -0.042
57. GAGAGTCA  -0.0408
58. GGTTAACC  -0.0407
59. CCAGCACA  -0.0385
60. GCCGCTAC  -0.035
61. CTCTTAGC  -0.0346
62. CGTTTGAC  -0.0311
63. ACGGGATC  -0.031
64. CATCAGTC  -0.0299
65. CCCACATA  -0.0259
66. CACGCGAA  -0.0244
67. AAGCTGTG  -0.0227
68. ATCTAGAT  -0.0211
69. ATGATCGG  -0.0209
70. CCCGTATA  -0.0173
71. GTGATCCA  -0.0162
72. AACCTTTG  -0.0148
73. TAACCAGA  -0.0142
74. GCTGTGTA  -0.0133
75. ACGCTATA  -0.013
76. CACTCGTC  -0.0107
77. CCCAGAAC  -0.00833
78. AAAGCCGG  -0.00605
79. CATAGGGA  -0.00581
80. AACATTCC  -0.00151
81. TATCGACA  -0.00051
82. ATGAACTC  8e-05
83. ATCAGCTC  0.00619
84. GGGATTTA  0.00928
85. GAAGGATA  0.0107
86. AAGCCATA  0.0111
87. AATGCCTG  0.0136
88. AGTTACTC  0.0157
89. ACGGTACC  0.0178
90. ACCCCAAC  0.0185
91. AATCTGCA  0.0198
92. AACTGACA  0.0248
93. ATTCGGCA  0.0276
94. CCACACTC  0.0283
95. CGGAGTTC  0.0329
96. AACTAATC  0.0334
97. GAACTACA  0.0379
98. CTATGTAC  0.0422
99. GTAGTGAA  0.0432
100. ACACTTTC  0.0435
101. CACTATCA  0.0462
102. ACAAGTCT  0.0466
103. CGAGGTTC  0.0474
104. GAACGGCA  0.0495
105. CTCTAAGC  0.0497
106. GTGTATGA  0.0534
107. AGCGCGAC  0.0599
108. ACCATCAT  0.0616
109. TATCGCCA  0.0619
110. ACGGTTAA  0.0619
111. CATCACAA  0.0635
112. CTAGCTAA  0.0653
113. ATTTCTAA  0.0658
114. GCACTGAA  0.0659
115. AAATTGAC  0.0675
116. GTTGAGTA  0.0684
117. GAAGCTTA  0.0705
118. ATGAGCTA  0.0721
119. GCGGGTTA  0.0735
120. GTGTAGGA  0.0755
121. ATCCTTTA  0.0774
122. ATGTCTCA  0.0777
123. CTAAGGGA  0.0792
124. CTATGCAA  0.0817
125. ATCAGTCA  0.0825
126. ACTGCCAT  0.0826
127. ATTTCTAG  0.083
128. CAGTTCAA  0.0849
129. CCGAATAG  0.0877
130. ATGTACAA  0.0885
131. CGACATCA  0.0904
132. ATGAAACC  0.0907
133. AATACCAA  0.095
134. TTCCCGAA  0.115
135. ACTGTGTA  0.117
136. CTCCAGTA  0.133
137. ATTACCAC  0.136
138. AGGAAAAT  0.137
139. AAAATTAA  0.138
140. CACGTAAC  0.139
141. AGATAGTA  0.14
142. TCGTATCA  0.151
143. AGGTTACC  0.155
144. TGTTGAAA  0.156
145. AATATATC  0.157
146. ATATTTTG  0.157
147. CTTTCACA  0.164
148. ATTTATGA  0.174
149. ACGTGGAT  0.175
150. GTTAAATA  0.178
151. AGACATAT  0.185
152. AATTCCTA  0.186
153. CCATAACA  0.192
154. GATTAAGA  0.193
155. GACGTAAC  0.194
156. TGTGAGAA  0.198
157. TACGTGAA  0.2
158. AGTATGTG  0.203
159. ACAAAGAC  0.216
160. TCTTTTCA  0.221
161. AATTGTGA  0.229
162. ATGTAGTA  0.237
163. AACCAAAA  0.237
164. ACATTATC  0.241
165. ATAAGTTC  0.244
166. AAATTATC  0.251
167. AGAGGTAT  0.256
168. ATACAAAA  0.284
169. ATATATAA  0.295
170. ACAATATA  0.302
171. GAATAACA  0.308
172. GAACAAAA  0.346
